Results as given in article PMC12670160, “A drug-repurposing screen of FDA- and EMA-approved drugs identifies two NF-κB inhibitors active against eumycetoma” (Journal of Antimicrobial Chemotherapy, 2025).
Counter-ions that a name gives are not always drawn. In all, about 5,300 compounds went through this assay and about 130 (2.5%) showed an effect of 50% or more. The list shows a part of the results.

These molecules were tested on M. mycetomatis strain mm55. Settings: primary screen, metabolic activity vs growth control; 96 h, 2 µM; inhibitor.

| Compound | % viability |
| --- | --- |
| Cc1nc(NC(=O)N2CCC[C@H]2C(N)=O)sc1-c1ccnc(C(C)(C)C(F)(F)F)c1 [ONC0005036, alpelisib byl719] | 108.4% |
| COC(=O)[C@H](Cc1cccc(C(=N)N)c1)[C@@H](C)NC(=O)c1ccc(-c2cc[n+]([O-])cc2)cc1 [ONC0001904, otamixaban] | 84.17% |
| CC(C)NCC(O)COc1cccc2ccccc12 (centres unmarked) [ONC0003974, propranolol hydrochloride] | 61.44% |
| Nc1n[nH]c2nc3ccccc3nc12 [ONC0002479, cdk15inhibitor] | 71.95% |
| CC1=NN=C(c2ccc(N)cc2)c2cc3c(cc2C1)OCO3 [ONC0002253, gyki52466] | 67.12% |
| Cc1c[nH]c(=O)n(CCCN2CCN(c3ccccc3OCC(F)(F)F)CC2)c1=O [ONC0001759, rs100329] | 99.58% |
| Nc1ncnc2c1c(-c1cnc3[nH]ccc3c1)nn2C1CCCC1 [ONC0001430, pp121] | 51.72% |
| COc1ccc2cc1Oc1ccc(cc1)C[C@H]1c3cc(c(OC)cc3CCN1C)Oc1c(OC)c(OC)cc3c1[C@H](C2)N(C)CC3 [ONC0004353, tetrandrine fanchinine] | 115.8% |
| CCOCCOc1ccccc1C(N)=O [ONC0002384, etosalamide] | 72.48% |
| Cc1ccc2c(c1)c1c(n2CCc2ccc(C)nc2)CCN(C)C1.Cl.Cl [ONC0000365, latrepirdine dimebon dihydrochloride] | 70.26% |
| Sc1nc2ccccc2s1 [ONC0003675, benzodthiazole23hthione] | 62.63% |
| CN1C(=O)C(F)=C[C@]2(C)[C@H]3CC[C@]4(C)[C@@H](C(=O)NCc5nc6cccnc6[nH]5)CC[C@H]4[C@@H]3CC[C@@H]12 [ONC0001125, mk0773] | 62.11% |
| C/N=c1/nc(-c2ccccc2)n(-c2ccccc2)s1 [ONC0002549, sch202676] | 72.78% |
| Nc1c(-c2cccc(C(F)(F)F)c2)nsc1C(=O)O [ONC0003699, amflutizole] | 83.7% |
| C[C@@]12C[C@@]3(O)O[C@@H](O1)[C@]1(COC(=O)c4ccccc4)[C@H]3C[C@@]12O[C@@H]1O[C@H](CO)[C@@H](O)[C@H](O)[C@H]1O [ONC0004980, paeoniflorin] | 83.59% |
| O=C(O)c1ccccc1-c1ccc(C(F)(F)F)cc1 [ONC0003712, xenalipin] | 103.4% |
| O=C1CN(/N=C/c2ccc(-c3ccc([N+](=O)[O-])cc3)o2)C(O)=N1 [ONC0003073, dantrolene] | 104.9% |
| Nc1ncnc2c1ncn2CCOCP(=O)(O)O [ONC0003286, adefovir] | 54.24% |
| COc1cc(Nc2nc3ccccc3nc2NS(=O)(=O)c2ccc(NC(=O)c3ccc(C)c(OC)c3)cc2)cc(OC)c1 [ONC0004638, xl765] | 95.99% |

A stretch from the list above:

| Compound | % viability |
| --- | --- |
| O=C1CN(/N=C/c2ccc(-c3ccc([N+](=O)[O-])cc3)o2)C(O)=N1 [ONC0003073, dantrolene] | 104.9% |
| Nc1ncnc2c1ncn2CCOCP(=O)(O)O [ONC0003286, adefovir] | 54.24% |
| COc1cc(Nc2nc3ccccc3nc2NS(=O)(=O)c2ccc(NC(=O)c3ccc(C)c(OC)c3)cc2)cc(OC)c1 [ONC0004638, xl765] | 95.99% |

The list goes on:

| Compound | % viability |
| --- | --- |
| Cc1ccccc1-n1c(Cn2nc(-c3cccc(O)c3)c3c(N)ncnc32)nc2cccc(C)c2c1=O [ONC0005221, pik294] | 112.5% |
| CO[C@@H]1[C@@H](OC2O[C@H](C)[C@@H](O[C@H]3C[C@@](C)(O)[C@@H](O)[C@H](C)O3)[C@H](N(C)C)[C@H]2O)[C@@H](CC=O)C[C@@H](C)[C@@H](O[C@H]2CC[C@H](N(C)C)[C@@H](C)O2)/C=C/C=C/C[C@@H](C)OC(=O)C[C@H]1O (some centres unmarked) [ONC0002448, spiramycin] | 104.6% |
| CCC1=C(C)CN(C(=O)NCCc2ccc(S(=O)(=O)NC(=O)N[C@H]3CC[C@H](C)CC3)cc2)C1=O [ONC0003944, glimepiride] | 79.11% |
| CCC(C)SSc1ncc[nH]1 (centres unmarked) [ONC0001121, px12] | 79.55% |
| O=C(O)[C@H]1C[C@@H](CP(=O)(O)O)CCN1 [ONC0005491, cgs 19755] | 127.7% |
| Cc1coc2c1C(=O)C(=O)c1c-2ccc2c(C)cccc12 [ONC0005263, tanshinone i] | 142.7% |
| Oc1ccc(-c2nc3cc(O)cc(Br)c3o2)cc1 [ONC0001495, way200070] | 68.78% |
| C1=Cc2cccc(OCC3CNCCO3)c2C1 (centres unmarked) [ONC0002142, indeloxazine] | 65.99% |
| O=P(O)(O)C(Cl)(Cl)P(=O)(O)O [ONC0004812, clodronate disodium] | 89.04% |
| CCCCOc1cc(C(=O)NCCN(CC)CC)c2ccccc2n1 [ONC0000553, dibucaine] | 90.83% |
| CC[C@H]1OC(=O)[C@H](C)C(=O)[C@H](C)[C@@H](O[C@@H]2O[C@H](C)C[C@H](N(C)C)[C@H]2O)[C@](C)(OC)C[C@@H](C)C(=O)[C@H](C)[C@H]2N(CCCCn3cnc(-c4cccnc4)c3)C(=O)O[C@]12C [ONC0003877, telithromycin] | 98.81% |
| N#C[C@@H]1C[C@@H]2C[C@@H]2N1C(=O)[C@@H](N)C12CC3CC(CC(O)(C3)C1)C2 [ONC0004839, saxagliptin bms477118onglyza] | 92.67% |
| CC(=O)N1CCC(C(=O)N(CCCN2CCC(Cc3ccc(C(N)=O)cc3)CC2)c2ccc(C)c(Cl)c2)CC1 [ONC0000715, tak220] | 84.93% |
| CCS(=O)(=O)CCn1c([N+](=O)[O-])cnc1C [ONC0004134, tinidazole] | 110.5% |
| O=C1CCc2cc(OCCCCc3nnnn3C3CCCCC3)ccc2N1 [ONC0004245, cilostazol] | 59.68% |
| CC(=O)N(CC(C)C(=O)O)c1c(I)cc(I)c(N)c1I (centres unmarked) [ONC0002944, iocetamicacid] | 59.58% |
| COc1ccc(OCC2c3cc(OC)c(OC)cc3CCN2C(=O)c2cccc(Cl)c2)cc1 (centres unmarked) [ONC0002470, ciq] | 70.64% |
| CC(=O)OCC1=C(C(=O)O)N2C(=O)[C@@H](NC(=O)CSc3ccncc3)[C@H]2SC1 [ONC0000719, cephapirin sodium] | 77.34% |
| O=C1OC2(c3ccc(O)cc3Oc3cc(O)ccc32)c2ccccc21 [ONC0004219, fluorescein] | 82.86% |
